Measured values from the supplement of paper PMC6418307.
Single values of this set are uncertain.

System: primary mouse cortical neurons
Assay: cell health score (luciferase spike-in reads / total reads per well) (fraction); higher = fewer cellular reads, worse cell health / toxicity
Settings: treatment time 24 h
[1] = 0.01 µM, sex of neuron culture: Female
[2] = 0.01 µM, sex of neuron culture: Male
[3] = 0.1 µM, sex of neuron culture: Female
[4] = 0.1 µM, sex of neuron culture: Male
[5] = 1 µM, sex of neuron culture: Female
[6] = 1 µM, sex of neuron culture: Male
[7] = 10 µM, sex of neuron culture: Female
[8] = 10 µM, sex of neuron culture: Male

SMILES: CCC(C)(C)C(=O)OC1=C(c2ccc(Cl)cc2Cl)C(=O)OC12CCCCC2 [Spirodiclofen]
- cell health score [1]: 0.000698
- cell health score [2]: 0.000848
- cell health score [3]: 0.0014
- cell health score [4]: 0.000645
- cell health score [5]: 0.000747
- cell health score [6]: 0.0005
- cell health score [7]: 0.00125
- cell health score [8]: 0.00163

SMILES: CC(C)(c1ccc(O)cc1)c1ccc(O)cc1 [Bisphenol A]
- cell health score [1]: 0.000549
- cell health score [2]: 0.00078
- cell health score [3]: 0.000873
- cell health score [4]: 0.000759
- cell health score [5]: 0.000818
- cell health score [6]: 0.000668
- cell health score [7]: 0.00112
- cell health score [8]: 0.000478

SMILES: CCc1ccc(C(=O)NN(C(=O)c2cc(C)cc(C)c2)C(C)(C)C)cc1 [Tebufenozide]
- cell health score [1]: 0.000497
- cell health score [2]: 0.000536
- cell health score [3]: 0.00109
- cell health score [4]: 0.000863
- cell health score [5]: 0.000771
- cell health score [6]: 0.000925
- cell health score [7]: 0.00165
- cell health score [8]: 0.000469

SMILES: CCCC(CCC)C(=O)O [Valproic acid]
- cell health score [1]: 0.001
- cell health score [2]: 0.000947
- cell health score [3]: 0.00132
- cell health score [4]: 0.00104
- cell health score [5]: 0.0014
- cell health score [6]: 0.000692
- cell health score [7]: 0.00109
- cell health score [8]: 0.000641

SMILES: Oc1ccc(Cl)cc1Cc1ccccc1 [Clorophene]
- cell health score [1]: 0.000554
- cell health score [2]: 0.000765
- cell health score [3]: 0.000707
- cell health score [4]: 0.000864
- cell health score [5]: 0.000722
- cell health score [6]: 0.000594
- cell health score [7]: 0.00102
- cell health score [8]: 0.00084

SMILES: CCOP(=S)(OCC)OC(Cl)C(Cl)(Cl)Cl (stereo not given) [Chlorethoxyfos]
- cell health score [1]: 0.000428
- cell health score [2]: 0.00106
- cell health score [3]: 0.000528
- cell health score [4]: 0.000837
- cell health score [5]: 0.00094
- cell health score [6]: 0.000476
- cell health score [7]: 0.00101
- cell health score [8]: 0.000668

SMILES: Cn1c(-c2ccccc2)cc(-c2ccccc2)[n+]1C [Difenzoquat metilsulfate]
- cell health score [1]: 0.000656
- cell health score [2]: 0.000668
- cell health score [3]: 0.000542
- cell health score [4]: 0.00073
- cell health score [5]: 0.00077
- cell health score [6]: 0.000522
- cell health score [7]: 0.00398
- cell health score [8]: 0.0012

SMILES: COCCO [2-Methoxyethanol]
- cell health score [1]: 0.000447
- cell health score [2]: 0.000903
- cell health score [3]: 0.00106
- cell health score [4]: 0.0011
- cell health score [5]: 0.00123
- cell health score [6]: 0.000734
- cell health score [7]: 0.00117
- cell health score [8]: 0.000848

SMILES: CO/N=C(/C(=O)OC)c1ccccc1COc1ccccc1C [Kresoxim methyl]
- cell health score [1]: 0.000514
- cell health score [2]: 0.000621
- cell health score [3]: 0.000925
- cell health score [4]: 0.000854
- cell health score [5]: 0.00116
- cell health score [6]: 0.00173
- cell health score [7]: 0.0169
- cell health score [8]: 0.00609

SMILES: CCC(C)(CC)c1cc(NC(=O)c2c(OC)cccc2OC)on1 [Isoxaben]
- cell health score [1]: 0.000528
- cell health score [2]: 0.000669
- cell health score [3]: 0.00167
- cell health score [4]: 0.00104
- cell health score [5]: 0.00147
- cell health score [6]: 0.000643
- cell health score [7]: 0.00123
- cell health score [8]: 0.00056

SMILES: CN(C)C(=S)SSC(=S)N(C)C [Thiram]
- cell health score [1]: 0.000569
- cell health score [2]: 0.000873
- cell health score [3]: 0.000926
- cell health score [4]: 0.000681
- cell health score [5]: 0.000714
- cell health score [6]: 0.000824
- cell health score [7]: 0.000831
- cell health score [8]: 0.000479

SMILES: CN(C)[C@@H]1C(O)=C(C(N)=O)C(=O)[C@@]2(O)C(O)=C3C(=O)c4c(O)cccc4[C@@](C)(O)[C@H]3[C@H](O)[C@@H]12 [Oxytetracycline dihydrate]
- cell health score [1]: 0.000515
- cell health score [2]: 0.00073
- cell health score [3]: 0.00111
- cell health score [4]: 0.00111
- cell health score [5]: 0.000695
- cell health score [6]: 0.000484
- cell health score [7]: 0.000843
- cell health score [8]: 0.000507

SMILES: Fc1ccc(Oc2ccnc3cc(Cl)cc(Cl)c23)cc1 [Quinoxyfen]
- cell health score [1]: 0.000633
- cell health score [2]: 0.000597
- cell health score [3]: 0.000684
- cell health score [4]: 0.000781
- cell health score [5]: 0.000639
- cell health score [6]: 0.000642
- cell health score [7]: 0.00118
- cell health score [8]: 0.000535

SMILES: CCCSP(=O)(OCC)SCCC [Ethoprop]
- cell health score [1]: 0.000722
- cell health score [2]: 0.000795
- cell health score [3]: 0.000623
- cell health score [4]: 0.000987
- cell health score [5]: 0.00095
- cell health score [6]: 0.000812
- cell health score [7]: 0.00133
- cell health score [8]: 0.00078

SMILES: COc1ccc(-c2ccccc2)cc1NNC(=O)OC(C)C [Bifenazate]
- cell health score [1]: 0.000618
- cell health score [2]: 0.000895
- cell health score [3]: 0.000735
- cell health score [4]: 0.000796
- cell health score [5]: 0.000634
- cell health score [6]: 0.000688
- cell health score [7]: 0.00112
- cell health score [8]: 0.00065

SMILES: O=[As][O-].[Na+] [Sodium arsenite]
- cell health score [1]: 0.000677
- cell health score [2]: 0.000696
- cell health score [3]: 0.000847
- cell health score [4]: 0.00105
- cell health score [5]: 0.00138
- cell health score [6]: 0.00072
- cell health score [7]: 0.0184
- cell health score [8]: 0.0142

SMILES: CNC(=O)Oc1cccc2ccccc12 [Carbaryl]
- cell health score [1]: 0.000454
- cell health score [2]: 0.00071
- cell health score [3]: 0.00112
- cell health score [4]: 0.000927
- cell health score [5]: 0.00104
- cell health score [6]: 0.000811
- cell health score [7]: 0.00145
- cell health score [8]: 0.000427

SMILES: CN=C=S [Methyl isothiocyanate]
- cell health score [1]: 0.000528
- cell health score [2]: 0.000609
- cell health score [3]: 0.00222
- cell health score [4]: 0.00069
- cell health score [5]: 0.000851
- cell health score [6]: 0.000975
- cell health score [7]: 0.000702
- cell health score [8]: 0.000588

SMILES: CON(C)C(=O)Nc1ccc(Cl)c(Cl)c1 [Linuron]
- cell health score [1]: 0.000448
- cell health score [2]: 0.000586
- cell health score [3]: 0.000885
- cell health score [4]: 0.000566
- cell health score [5]: 0.00103
- cell health score [6]: 0.000877
- cell health score [7]: 0.00111
- cell health score [8]: 0.000704

SMILES: N#Cc1c[nH]cc1-c1cccc2c1OC(F)(F)O2 [Fludioxonil]
- cell health score [1]: 0.000405
- cell health score [2]: 0.000702
- cell health score [3]: 0.00157
- cell health score [4]: 0.000727
- cell health score [5]: 0.000961
- cell health score [6]: 0.000832
- cell health score [7]: 0.00103
- cell health score [8]: 0.000632

SMILES: CCCCNC(=O)n1c(NC(=O)OC)nc2ccccc21 [Benomyl]
- cell health score [1]: 0.000823
- cell health score [2]: 0.000606
- cell health score [3]: 0.00109
- cell health score [4]: 0.000775
- cell health score [5]: 0.000819
- cell health score [6]: 0.000743
- cell health score [7]: 0.000912
- cell health score [8]: 0.000627

SMILES: CCCCOC(=O)c1ccccc1C(=O)OCCCC [Dibutyl phthalate]
- cell health score [1]: 0.000485
- cell health score [2]: 0.000647
- cell health score [3]: 0.000628
- cell health score [4]: 0.00104
- cell health score [5]: 0.00117
- cell health score [6]: 0.000464
- cell health score [7]: 0.000919
- cell health score [8]: 0.000535

SMILES: O=c1n(Cl)c(=O)n(Cl)c(=O)n1Cl [Symclosene]
- cell health score [1]: 0.000436
- cell health score [2]: 0.000669
- cell health score [3]: 0.000645
- cell health score [4]: 0.000714
- cell health score [5]: 0.000651
- cell health score [6]: 0.000624
- cell health score [7]: 0.000602
- cell health score [8]: 0.000907

SMILES: COc1cc(/C=C/C(=O)CC(=O)/C=C/c2ccc(O)c(OC)c2)ccc1O [Curcumin]
- cell health score [1]: 0.000432
- cell health score [2]: 0.000598
- cell health score [3]: 0.00112
- cell health score [4]: 0.000837
- cell health score [5]: 0.00128
- cell health score [6]: 0.00134
- cell health score [7]: 0.00104
- cell health score [8]: 0.00154

SMILES: OC(c1ccc(Cl)cc1)(c1ccc(Cl)cc1)C(Cl)(Cl)Cl [Dicofol]
- cell health score [1]: 0.000503
- cell health score [2]: 0.000848
- cell health score [3]: 0.000795
- cell health score [4]: 0.000947
- cell health score [5]: 0.000782
- cell health score [6]: 0.000642
- cell health score [7]: 0.0016
- cell health score [8]: 0.000773
